PubChem BioAssay AID330 (DTP/NCI, 2004)
The list shows only some results of the screen, not a fair sample: it gathers tests that were run many times, whatever their T/C, doses with no T/C, and many T/C values between a quarter and a half above the control. Other doses and runs of a compound stand elsewhere. T/C gives the treated animals as a percentage of the vehicle group. Some entries give survivors of the animals treated and no T/C: the source holds a T/C of zero for them, seemingly a mark for toxic or unscored doses. Some doses without a T/C left all or most animals alive at the check, yet need not have been tolerated: survival well below the control is almost never listed, so the zero probably covers shortened survival too. Survivors were counted at the toxicity check, usually on the fifth day, unless a day is given; later deaths do not show. Schedules are NCI's codes, read here as Q, the interval in days (D) or hours (H), X, the number of doses. Some doses were run more than once; their values stand side by side, smallest first. Where survival is the endpoint, the PubChem record calls one and a half times the control and up active, and a quarter to a half above the control has no call in these data; cut-offs in other NCI protocols can differ. Some T/C values are followed by the survivors on the day toxicity was checked, most often the fifth; where none is given, no animal had died by that day. Additions like (4×) give the number of equal values in this list.

Test system: P388 leukemia ip, CD2F1 mice, survival T/C
Test: NCI In Vivo Anticancer Drug Screen. Data for tumor model P388 Leukemia (intraperitoneal) in CD2F1 (CDF1) mice
Conditions: T/C endpoint: median survival time, higher T/C = longer survival
[1] = dose: 125.0 mg/kg/injection, schedule: Q01DX001 (ip), vehicle: Klucel (hydroxypropylcellulose) (HPC)
[2] = dose: 150.0 mg/kg/injection, schedule: Q04DX003 (ip), vehicle: Klucel (hydroxypropylcellulose) (HPC)
[3] = dose: 250.0 mg/kg/injection, schedule: Q01DX001 (ip), vehicle: Klucel (hydroxypropylcellulose) (HPC)

How did the survivor count (dose: 62.5 mg/kg/injection, schedule: Q01DX001 (ip), vehicle: Klucel (hydroxypropylcellulose) (HPC)) turn out when `CCCCCCCCCCCCCCCC(=O)OCC1OC(n2ccc(N)nc2=O)C(O)C1O` (stereo not given) was run?
Its survivor count is 6 of 6.

And the T/C (dose: 75.0 mg/kg/injection, schedule: Q04DX002 (ip), vehicle: Klucel (hydroxypropylcellulose) (HPC), evaluated on day 30)?
The T/C was 144, 169 [5 of 6 alive], 170, 175, 208, 221, 227, 228, 231, 234, 248, 250, 251, 252, 254, 259, 260 (3×), 263 [2 of 2 alive], 265, 267, 272, 274, 275, 283 (2×), 284, 285, 288, 296 % of control.

What about the T/C (dose: 75.0 mg/kg/injection, schedule: Q04DX002 (ip), vehicle: Klucel (hydroxypropylcellulose) (HPC), evaluated on day 35) of the same compound?
Its T/C is 240, 254, 317 % of control.

And the survivor count (dose: 75.0 mg/kg/injection, schedule: Q04DX002 (ip), vehicle: Klucel (hydroxypropylcellulose) (HPC))?
Its survivor count is 3 of 3 and 6 of 6.

What about the T/C (dose: 75.0 mg/kg/injection, schedule: Q04DX003 (ip), vehicle: Klucel (hydroxypropylcellulose) (HPC)) of the same compound?
Its T/C is 150, 176, 207, 221, 223, 229, 240 [2 of 3 alive], 242, 243, 247, 249, 256 (2×), 257, 258, 260, 262, 265 (2×), 265 [4 of 6 alive], 267, 270 (2×), 274 (2×), 277 (2×), 283, 285, 288, 290, 291, 294, 300 % of control.

What about the T/C (dose: 100.0 mg/kg/injection, schedule: Q01DX001 (ip), vehicle: saline with Tween-80, evaluated on day 5) of the same compound?
The T/C was 212 and 409 % of control.

What about the T/C (dose: 100.0 mg/kg/injection, schedule: Q01DX001 (ip), vehicle: saline with Tween-80, evaluated on day 47) of the same compound?
Its T/C is 251 % of control.

And the T/C (dose: 100.0 mg/kg/injection, schedule: Q01DX001 (ip), vehicle: saline with Tween-80, evaluated on day 48)?
Its T/C is 226 % of control.

What about the T/C (dose: 100.0 mg/kg/injection, schedule: Q01DX001 (ip), vehicle: saline with Tween-80, evaluated on day 60) of the same compound?
Its T/C is 206, 262, 295 % of control.

What about the T/C [1] of the same compound?
The T/C was 102, 114, 128, 158, 163, 209 [5 of 6 alive], 215, 230, 250, 256, 258, 259, 260 (2×), 262, 265 (2×), 268, 270, 272 (2×), 277 (2×), 278, 285 (2×), 290, 297 (2×), 297 [5 of 6 alive], 300 % of control.

And the survivor count [1]?
Its survivor count is 6 of 6.

And the T/C (dose: 125.0 mg/kg/injection, schedule: Q01DX001 (ip), vehicle: saline with Tween-80, evaluated on day 5)?
Its T/C is 200 and 569 % of control.

And the T/C (dose: 125.0 mg/kg/injection, schedule: Q01DX001 (ip), vehicle: saline with Tween-80, evaluated on day 30)?
The T/C was 207, 275, 285, 291, 300, 306 % of control.

What about the T/C (dose: 125.0 mg/kg/injection, schedule: Q01DX001 (ip), vehicle: saline with Tween-80, evaluated on day 44) of the same compound?
The T/C was 333 and 396 % of control.

And the T/C (dose: 125.0 mg/kg/injection, schedule: Q01DX001 (ip), vehicle: saline with Tween-80, evaluated on day 45)?
Its T/C is 210, 300, 365, 375, 420, 445 % of control.

And the T/C (dose: 125.0 mg/kg/injection, schedule: Q01DX001 (ip), vehicle: saline with Tween-80, evaluated on day 47)?
The T/C was 292 and 310 % of control.

What about the T/C (dose: 125.0 mg/kg/injection, schedule: Q01DX001 (ip), vehicle: saline with Tween-80, evaluated on day 48) of the same compound?
Its T/C is 252 % of control.

And the T/C (dose: 125.0 mg/kg/injection, schedule: Q01DX001 (ip), vehicle: saline with Tween-80, evaluated on day 60)?
The T/C was 185, 255, 277, 346, 373, 382, 396, 504, 588, 631 % of control.

And the T/C (dose: 150.0 mg/kg/injection, schedule: Q01DX001 (ip), vehicle: saline with Tween-80, evaluated on day 20)?
The T/C was 181 % of control.

And the T/C (dose: 150.0 mg/kg/injection, schedule: Q01DX001 (ip), vehicle: saline with Tween-80, evaluated on day 30)?
Its T/C is 256, 275, 285, 291, 300, 306 % of control.

What about the T/C (dose: 150.0 mg/kg/injection, schedule: Q01DX001 (ip), vehicle: saline with Tween-80, evaluated on day 44) of the same compound?
Its T/C is 342 and 396 % of control.

And the T/C (dose: 150.0 mg/kg/injection, schedule: Q01DX001 (ip), vehicle: saline with Tween-80, evaluated on day 45)?
The T/C was 226, 284, 326, 415, 420, 432 % of control.

And the T/C (dose: 150.0 mg/kg/injection, schedule: Q01DX001 (ip), vehicle: saline with Tween-80, evaluated on day 47)?
The T/C was 292 and 336 % of control.

What about the T/C (dose: 150.0 mg/kg/injection, schedule: Q01DX001 (ip), vehicle: saline with Tween-80, evaluated on day 48) of the same compound?
Its T/C is 291 % of control.

What about the T/C (dose: 150.0 mg/kg/injection, schedule: Q01DX001 (ip), vehicle: saline with Tween-80, evaluated on day 60) of the same compound?
Its T/C is 285, 310 [9 of 10 alive], 357, 517, 554, 576 (2×), 588 (2×), 631 % of control.

And the T/C (dose: 150.0 mg/kg/injection, schedule: Q04DX002 (ip), vehicle: Klucel (hydroxypropylcellulose) (HPC), evaluated on day 30)?
Its T/C is 90, 95, 113, 115, 121, 131, 134, 135 [5 of 6 alive], 165, 178, 184, 195, 224, 225, 251, 260 [2 of 3 alive], 263, 265, 267, 272, 275, 275 [5 of 6 alive], 280, 283 (2×), 284 (2×), 285 % of control.

What about the T/C (dose: 150.0 mg/kg/injection, schedule: Q04DX002 (ip), vehicle: Klucel (hydroxypropylcellulose) (HPC), evaluated on day 35) of the same compound?
The T/C was 210, 318, 326 % of control.

And the survivor count (dose: 150.0 mg/kg/injection, schedule: Q04DX002 (ip), vehicle: Klucel (hydroxypropylcellulose) (HPC))?
Its survivor count is 3 of 3 and 6 of 6.

What about the T/C [2] of the same compound?
The T/C was 88, 91, 92 (3×), 94, 97, 99, 100, 105, 107, 108 (3×), 110 (2×), 113, 114 (2×), 115, 116, 119, 120 (2×), 125, 127, 145, 208, 245, 262, 265, 266 % of control [5 of 6 alive].

What about the survivor count [2] of the same compound?
The survivor count was 3 of 3.

What about the T/C [3] of the same compound?
The T/C was 151, 171 [5 of 6 alive], 175, 179, 191, 210, 220, 241 [5 of 6 alive], 253, 256, 258, 260, 267 (2×), 270, 272 (2×), 275, 277, 282, 283, 285, 287, 288, 296, 297 (2×), 300 % of control.

What about the survivor count [3] of the same compound?
Its survivor count is 3 of 3 and 6 of 6.

And the survivor count (dose: 250.0 mg/kg/injection, schedule: Q04DX002 (ip), vehicle: Klucel (hydroxypropylcellulose) (HPC))?
Its survivor count is 3 of 3 and 6 of 6.

And the survivor count (dose: 300.0 mg/kg/injection, schedule: Q01DX001 (ip), vehicle: saline with Tween-80)?
The survivor count was 6 of 6.

What about the survivor count (dose: 600.0 mg/kg/injection, schedule: Q01DX001 (ip), vehicle: saline with Tween-80) of the same compound?
Its survivor count is 2 of 6.
